The target of this assay is recombinant mouse αvβ3 integrin, extracellular domains (mouse) (UniProt P43406+O54890). Nature of the assay: AlphaScreen or HTRF; AlphaLISA integrin-ligand binding assay; recombinant integrin and its ligand with inhibitor, 2 h at room temperature; 25 mM HEPES pH 7.4, 137 mM NaCl, 1 mM MgCl2, 1 mM MnCl2, 2 mM CaCl2, 2.7 mM KCl, 0.05% Tween-20; concentrations in Supplemental Table S3; both purified. On the technique in general: In Alpha technology, singlet oxygen from a donor bead excites a nearby acceptor bead.

By UniProt entry, the sequences of proteins in these tests, tags left out. Where a name states a change or a piece, a line headed by the entry shows the natural chain unless it says otherwise. Residues count along the entry.
UniProt P43406: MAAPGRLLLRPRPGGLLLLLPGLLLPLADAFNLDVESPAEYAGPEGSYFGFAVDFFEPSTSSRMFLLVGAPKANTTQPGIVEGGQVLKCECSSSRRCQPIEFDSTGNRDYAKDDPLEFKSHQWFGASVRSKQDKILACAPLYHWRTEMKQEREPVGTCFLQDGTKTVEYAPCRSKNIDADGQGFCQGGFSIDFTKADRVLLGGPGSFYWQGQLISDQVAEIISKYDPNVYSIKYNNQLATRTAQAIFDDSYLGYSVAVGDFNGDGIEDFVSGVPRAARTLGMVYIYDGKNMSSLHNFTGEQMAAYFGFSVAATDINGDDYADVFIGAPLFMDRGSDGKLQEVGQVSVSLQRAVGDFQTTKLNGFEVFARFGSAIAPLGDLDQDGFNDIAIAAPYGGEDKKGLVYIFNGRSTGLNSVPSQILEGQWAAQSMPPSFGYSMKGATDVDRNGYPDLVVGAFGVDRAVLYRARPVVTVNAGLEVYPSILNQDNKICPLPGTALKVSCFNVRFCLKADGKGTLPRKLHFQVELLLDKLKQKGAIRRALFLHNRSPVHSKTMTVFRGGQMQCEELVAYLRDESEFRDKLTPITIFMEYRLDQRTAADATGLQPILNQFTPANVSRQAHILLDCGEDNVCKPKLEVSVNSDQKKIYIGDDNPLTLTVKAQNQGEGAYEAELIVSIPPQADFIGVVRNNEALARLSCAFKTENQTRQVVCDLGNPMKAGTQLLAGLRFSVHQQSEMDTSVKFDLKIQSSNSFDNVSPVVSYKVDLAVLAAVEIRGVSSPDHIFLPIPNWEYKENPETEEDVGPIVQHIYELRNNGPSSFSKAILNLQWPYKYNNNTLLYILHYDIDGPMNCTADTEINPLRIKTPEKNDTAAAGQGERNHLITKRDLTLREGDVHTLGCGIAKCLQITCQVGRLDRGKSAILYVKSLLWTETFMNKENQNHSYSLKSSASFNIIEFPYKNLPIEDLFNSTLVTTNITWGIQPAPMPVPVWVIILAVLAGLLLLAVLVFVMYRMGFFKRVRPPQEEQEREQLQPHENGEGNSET
UniProt O54890: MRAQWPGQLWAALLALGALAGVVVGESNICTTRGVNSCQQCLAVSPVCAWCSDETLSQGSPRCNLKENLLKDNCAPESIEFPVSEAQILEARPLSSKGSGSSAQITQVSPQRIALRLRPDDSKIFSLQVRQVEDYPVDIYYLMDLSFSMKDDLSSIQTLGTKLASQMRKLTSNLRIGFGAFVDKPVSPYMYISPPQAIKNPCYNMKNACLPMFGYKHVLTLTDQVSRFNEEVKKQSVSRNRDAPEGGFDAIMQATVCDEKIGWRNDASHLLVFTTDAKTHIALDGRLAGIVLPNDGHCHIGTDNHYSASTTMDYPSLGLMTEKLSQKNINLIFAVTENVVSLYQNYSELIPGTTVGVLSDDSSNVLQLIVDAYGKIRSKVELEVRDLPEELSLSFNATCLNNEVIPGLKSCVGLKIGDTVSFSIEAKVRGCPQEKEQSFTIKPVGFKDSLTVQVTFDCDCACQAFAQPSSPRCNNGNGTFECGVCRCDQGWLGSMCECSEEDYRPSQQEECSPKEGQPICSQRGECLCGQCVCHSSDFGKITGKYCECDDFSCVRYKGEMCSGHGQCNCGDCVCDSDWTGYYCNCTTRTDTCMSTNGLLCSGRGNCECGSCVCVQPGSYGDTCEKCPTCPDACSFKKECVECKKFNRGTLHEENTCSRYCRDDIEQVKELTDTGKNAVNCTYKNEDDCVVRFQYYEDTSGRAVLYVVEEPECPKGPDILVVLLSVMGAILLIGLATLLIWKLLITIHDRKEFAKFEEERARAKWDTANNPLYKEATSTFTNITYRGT
UniProt P04004, residues 20-478: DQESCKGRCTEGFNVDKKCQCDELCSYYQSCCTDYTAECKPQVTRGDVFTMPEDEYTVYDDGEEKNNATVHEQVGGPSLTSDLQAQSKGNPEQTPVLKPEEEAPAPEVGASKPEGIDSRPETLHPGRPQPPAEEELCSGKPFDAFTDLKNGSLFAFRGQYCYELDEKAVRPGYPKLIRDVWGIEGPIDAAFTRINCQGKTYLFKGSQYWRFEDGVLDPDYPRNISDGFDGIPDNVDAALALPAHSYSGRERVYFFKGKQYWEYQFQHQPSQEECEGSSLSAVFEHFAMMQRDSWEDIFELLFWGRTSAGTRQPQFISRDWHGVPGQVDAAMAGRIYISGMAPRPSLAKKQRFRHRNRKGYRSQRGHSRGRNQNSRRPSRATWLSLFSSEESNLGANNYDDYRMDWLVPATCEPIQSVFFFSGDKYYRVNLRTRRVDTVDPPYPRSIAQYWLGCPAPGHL

No constants are given. Whether binding was seen depends on the method and setting. Some binding calls cover weakened binding; strength is not graded here.

As for “vitronectin (ligand of the AlphaLISA integrin assays) (from UniProt P04004 20-478)”, the binding entry is given as “binds”.

Source of the values: paper PMC7822819, “Discovery of a new class of integrin antibodies for fibrosis” (Scientific Reports, 2021).
